Experimental data from the supplement of paper PMC9233669.
Variants at the floor of the assay are shown more often than the library holds them.

Tests used:
biotinyl-Trp-oxazolone = experiment: self-aminoacylation, catalytic enhancement (BWO) (fold over background); higher = more active; k-Seq, kA / k0A0; sequences stand for … in GGGAAUGGAUCCACAUCUACGAAUUC…UUCACUGCAGACUUGACGAAGCUG
Method in brief: (§1)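 The uncatalyzed rate is the low-activity peak of a bimodal Gaussian fit, and catalytic enhancement is median kA divided by it. The kA values came from pseudo-first-order fits, with 1000 bootstraps, of per-sequence fraction reacted measured by streptavidin capture, triplicate qPCR and Illumina sequencing. Mutagenized RNA pools with a 21-nt variable region (0.43 μM) were reacted with each biotinyl-aminoacyl-oxazolone at 2–1250 μM in 50 μL HEPES/NaCl/KCl/MgCl2/CaCl2 buffer with 5% acetonitrile, pH 6.9–7.0, for 90 minutes at room temperature.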

biotinyl-Leu-oxazolone = experiment: self-aminoacylation, catalytic enhancement (BLO) (fold over background); higher = more active; k-Seq, kA / k0A0; sequences stand for … in GGGAAUGGAUCCACAUCUACGAAUUC…UUCACUGCAGACUUGACGAAGCUG
Method in brief: as §1

biotinyl-Val-oxazolone = experiment: self-aminoacylation, catalytic enhancement (BVO) (fold over background); higher = more active; k-Seq, kA / k0A0; sequences stand for … in GGGAAUGGAUCCACAUCUACGAAUUC…UUCACUGCAGACUUGACGAAGCUG
Method in brief: as §1

biotinyl-Ile-oxazolone = experiment: self-aminoacylation, catalytic enhancement (BIO) (fold over background); higher = more active; k-Seq, kA / k0A0; sequences stand for … in GGGAAUGGAUCCACAUCUACGAAUUC…UUCACUGCAGACUUGACGAAGCUG
Method in brief: as §1

biotinyl-Met-oxazolone = experiment: self-aminoacylation, catalytic enhancement (BMO) (fold over background); higher = more active; k-Seq, kA / k0A0; sequences stand for … in GGGAAUGGAUCCACAUCUACGAAUUC…UUCACUGCAGACUUGACGAAGCUG
Method in brief: as §1

biotinyl-Phe-oxazolone = experiment: self-aminoacylation, catalytic enhancement (BFO) (fold over background); higher = more active; k-Seq, kA / k0A0; sequences stand for … in GGGAAUGGAUCCACAUCUACGAAUUC…UUCACUGCAGACUUGACGAAGCUG
Method in brief: as §1

Sequence	self-aminoacylation (biotinyl-Trp-oxazolone)	self-aminoacylation (biotinyl-Leu-oxazolone)	self-aminoacylation (biotinyl-Val-oxazolone)	self-aminoacylation (biotinyl-Ile-oxazolone)	self-aminoacylation (biotinyl-Met-oxazolone)	self-aminoacylation (biotinyl-Phe-oxazolone)
CUAAUUCAAACAAUCGGUCGG [Fam1A.1 aminoacylation ribozyme variant]	1.69	0.84	0.765	0.729	0.791	2.14
AUUACCCUGGGCAUCGAGUGG [Fam2.1 aminoacylation ribozyme variant]	1.61	1.28	0.826	0.954	0.871	1.08
AUUCACCUAUGGCAUCGGGUG [Fam2.2 aminoacylation ribozyme variant]	2.25	2.84	1.94	1.96	2.41	11.9
CUACUUCAAAGAAUCGCUCUG [Fam1A.1 aminoacylation ribozyme variant]	0.978	0.857	0.72	0.715	0.756	0.672
AGGUUUGCUAAUUGUCGCAAG [Fam3.1 aminoacylation ribozyme variant]	1.33	1.04	0.975	1.15	0.979	1.3
CCACACUUCAAGCGAUCUGUC [Fam1B.1 aminoacylation ribozyme variant]	0.448	0.319	0.513	0.48	0.423	0.47
AGGUUUGCUAAUGGUCGCAAG [Fam3.1 aminoacylation ribozyme variant]	0.816	0.773	0.685	0.764	0.846	1.03
CUACUUCAUACACUCGGUCUG [Fam1A.1 aminoacylation ribozyme variant]	0.629	0.639	0.891	1.04	0.74	0.757
AUUCACCUAGGUCAUCUGGUA [Fam2.2 aminoacylation ribozyme variant]	0.722	1.03	1.21	1.22	0.952	0.671
AAGUUUGCUAGUAGUCGAAAG [Fam3.1 aminoacylation ribozyme variant]	0.863	0.989	0.776	0.979	0.742	1.02
AAGUUUGCUAAUAGUGCCAAG [Fam3.1 aminoacylation ribozyme variant]	0.774	0.727	0.799	0.916	1.18	1.04
CCAUACUUCAAGCAAUCGGCC [Fam1B.1 aminoacylation ribozyme variant]	3.74	2.33	1.8	1.91	2.36	2.88
CCACACUUAAAGCAAACGGUC [Fam1B.1 aminoacylation ribozyme variant]	0.578	0.616	0.765	0.685	0.502	0.924
CUACUUCAAGCAAUCGUUCUG [Fam1A.1 aminoacylation ribozyme variant]	0.797	0.691	0.768	0.77	0.701	0.921
AUUACCCUGGUCCUCGAGUAA [Fam2.1 aminoacylation ribozyme variant]	1.64	1.33	1.36	1.35	0.966	0.542
AAGUUUGCUAAUAGUCUCAUG [Fam3.1 aminoacylation ribozyme variant]	1.06	0.932	0.905	0.991	0.887	1.5
AAGUUUGCCAAUAGUCGCAAC [Fam3.1 aminoacylation ribozyme variant]	1.59	1.39	1.51	1.14	1.02	1.91
CCACCCUCCAAGCAAUCGGUC [Fam1B.1 aminoacylation ribozyme variant]	1.86	0.954	1.39	1.3	1.07	1.98
CCACACUUGAAGCAAUCAGUC [Fam1B.1 aminoacylation ribozyme variant]	0.437	0.56	0.512	0.564	0.416	0.939
AUGACCCUGGUCAUCGAUUGA [Fam2.1 aminoacylation ribozyme variant]	0.593	1.14	1.16	1.07	1.3	0.924
CUACAUCAAACUAUCGGUCUG [Fam1A.1 aminoacylation ribozyme variant]	0.949	0.898	1.04	1.05	0.962	1.04
CCACACUUCAAGCAAUCGAUG [Fam1B.1 aminoacylation ribozyme variant]	0.746	0.598	0.665	0.571	0.534	1.01
CUACUUCAAGCAAUCGAUCUG [Fam1A.1 aminoacylation ribozyme variant]	0.717	0.713	0.671	0.648	0.604	1.36
CUACUUCAAGCAAUUGGUCUG [Fam1A.1 aminoacylation ribozyme variant]	1.24	1.06	0.974	1.03	0.824	1.61
CCACACUUCAAACAAUGGGUC [Fam1B.1 aminoacylation ribozyme variant]	0.761	0.687	0.753	0.736	0.562	0.682
CUACCUCGAACAAUCGGUCUG [Fam1A.1 aminoacylation ribozyme variant]	0.876	1.15	1.11	0.912	0.79	0.586
AAGUUUGCUAGUAGGCGCAAG [Fam3.1 aminoacylation ribozyme variant]	0.852	0.838	0.846	0.793	0.634	0.91
